{
  "source": "patent US20110301194A1",
  "about": "“Method for Determining Treatment Efficacy” (ArQule, Inc., priority 2010, published 2011)",
  "test_system": "serum HGF",
  "assay": "Serum HGF in hepatocellular carcinoma patients given Agent A",
  "assay_type": "in vivo, human",
  "details": "patients with hepatocellular carcinoma, oral 360 mg BID, 28-day cycles; after administration; higher than in previous treated patient populations",
  "procedure": "Patients with hepatocellular carcinoma (Table 1) were administered with (−)-trans-3-(5,6-dihydro-4H-pyrrolo[3,2,1-ij]quinolin-1-yl)-4-(1H-indol-3-yl)pyrrolidine-2,5-dione at an oral dose of 360 mg of (−)-trans-3-(5,6-dihydro-4H-pyrrolo[3,2,1-ij]quinolin-1-yl)-4-(1H-indol-3-yl)pyrrolidine-2,5-dione (Agent A) twice daily (BID) for several cycles of 28-day period. Serum HGF from the patients were collected and analysed. HGF serum levels (median 2400 ng/mL) were higher after the administration of Agent A than in previous treated patient populations. HGF levels were correlated to the efficacy of Agent A and neutropenia (FIGS. 3a and 3b).",
  "data": [
    {"compound": "O=C1NC(=O)[C@@H](c2cn3c4c(cccc24)CCC3)[C@@H]1c1c[nH]c2ccccc12", "note": "[Agent A, (−)-trans-3-(5,6-dihydro-4H-pyrrolo[3,2,1-ij]quinolin-1-yl)-4-(1H-indol-3-yl)pyrrolidine-2,5-dione]", "values": [
      {"measurement": "HGF serum levels (median)", "result": 2400, "unit": "ng/mL"}
    ]}
  ]
}
